This note sets out measurements from article PMC7819943, “Rice protein-binding microarrays: a tool to detect cis-acting elements near promoter regions in rice”.

Chains of the proteins cited; added tags and fusions are not shown.
UniProt Q0JBA9, entry or part of it: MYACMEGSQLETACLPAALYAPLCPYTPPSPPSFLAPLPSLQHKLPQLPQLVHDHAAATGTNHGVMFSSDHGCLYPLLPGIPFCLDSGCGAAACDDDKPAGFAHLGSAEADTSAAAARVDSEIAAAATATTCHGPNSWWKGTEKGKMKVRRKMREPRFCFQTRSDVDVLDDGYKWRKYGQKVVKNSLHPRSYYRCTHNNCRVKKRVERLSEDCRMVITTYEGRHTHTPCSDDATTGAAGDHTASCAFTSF

The other results are listed elsewhere or left out.

For the assay, the target named is OsWRKY34 (Oryza sativa, UniProt Q0JBA9 1-250). As to the kind of experiment: protein-binding microarray (RPBM); PBS, 2% BSA, 51.3 ng/ul salmon testes DNA, 50 uM zinc acetate, 200 nM TF, 25 C, 1 h; high values mean tight binding. As to conditions: protein: recombinant; tags: N-terminal polyhistidine and DsRed monomer fusion (pET32a); label: CyDye5-dUTP incorporated in the synthesized complementary strand; 3' TTTTT single-stranded linker to array surface; dsDNA, one strand shown. In outline:
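Transcription factors, each fused N-terminally to a polyhistidine tag and DsRed, were expressed in E. coli BL21-CodonPlus and purified on Ni–NTA. A custom Agilent array was made double-stranded by primer extension with Cy5-dUTP and blocked with 2% BSA. It was incubated with 200 nM protein in PBS, 2% BSA, salmon testes DNA and 50 µM zinc acetate at 25 °C for 1 h, then washed. The binding signal is per-feature fluorescence intensity (arbitrary units) read on an Axon 4000B scanner.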
Consider “TAAGTTTGCCAGTTCTGCAGTTCATGTATCTGTAATTTGACGGAGTCACCTAGTGCAG”, for which the binding signal is 8370 fluorescence intensity (a.u.).
“TGGGTCCCTGGTTTTATTAGTCCACAGTTTGTCACTGCCTCGGAGTCACCTAGTGCAG”: the binding signal was 9090 fluorescence intensity (a.u.).
Next, “GTGTCGCCGTCTGTATACCAACTGCTCCTCGCTTTCGTTTCGGAGTCACCTAGTGCAG”: 13500 fluorescence intensity (a.u.).
Next, “GTTTCGAGTCCGAACCAAGTCACAGTCCGGTTTATTTTATCGGAGTCACCTAGTGCAG”: 9220 fluorescence intensity (a.u.); “GGTGGGTGGGGATCCACCTATACCTGGCCAAATGGGCCGTCGGAGTCACCTAGTGCAG”: 8490 fluorescence intensity (a.u.); “GGTCAGTTCAGTTGGTCTACCGGTTTTGCTTGCATTCCTGCGGAGTCACCTAGTGCAG”: 8140 fluorescence intensity (a.u.).
The value for “TTTTTTAACCTCACCTCACCTCCCCTTTTGATTGATATTTCGGAGTCACCTAGTGCAG” was 8080 fluorescence intensity (a.u.); that for “CCCCGACACGTTTTCAAGTTAAAGTGCGCATCCTGACCCACGGAGTCACCTAGTGCAG” was 9180 fluorescence intensity (a.u.); that for “GACCTCCTGTTTTCGTGCCAGTTTGAGTCCTAATCAAGCGCGGAGTCACCTAGTGCAG” was 9380 fluorescence intensity (a.u.).
In the case of “ACAGGTTCATTCATTCTCCAAAGTCCAGCGTTCATCAATGCGGAGTCACCTAGTGCAG”, the binding signal was 8200 fluorescence intensity (a.u.).
For the sequence “CAGATTTTACTTTGGTTCTGTTAGCACGTTTTTCAAATAACGGAGTCACCTAGTGCAG”, the binding signal was 8450 fluorescence intensity (a.u.).
Take “CTCATCGTCCTCCACGTGTCCACCCATACACGTGTCGCCACGGAGTCACCTAGTGCAG”: the binding signal was 9000 fluorescence intensity (a.u.).
The value for “CTTTTTATTTGCAAATATGCCGTTCACATGTTCTCTGCTTCGGAGTCACCTAGTGCAG” was 9420 fluorescence intensity (a.u.).
Next, “TTATTGCTGTCTTTTGTATTCTCAGCTTTTCAAAATCAGCCGGAGTCACCTAGTGCAG”: 9790 fluorescence intensity (a.u.); “TAGCTAGTGGTCGGTAGCAAGAGGTGGGGTGGCTTAGTGACGGAGTCACCTAGTGCAG”: 13700 fluorescence intensity (a.u.).
With “AAATATATCTTTCCATTTTTCAAAAGTTTTGATCTTCCTACGGAGTCACCTAGTGCAG”, the binding signal was 8480 fluorescence intensity (a.u.).
The value for “CTCTCACCCTTCTCTCCTCCACCTTTCCCCAACACGTACCCGGAGTCACCTAGTGCAG” was 9060 fluorescence intensity (a.u.).
For “ACACTACTTTATGAATGTCTGCACCGATATGTGCCACTTTCGGAGTCACCTAGTGCAG”, the binding signal is 9530 fluorescence intensity (a.u.).
The value for “ACCCTCCGTTTCTAAATATTTAACACCGTTGACTTTTTAGCGGAGTCACCTAGTGCAG” was 23700 fluorescence intensity (a.u.).
Take “CATACATAAACTTTCAACTTTTCCGTCACATCGCTCCAATCGGAGTCACCTAGTGCAG”: the binding signal was 8140 fluorescence intensity (a.u.).
As for “TTTCGTATTTGTTACCAGTTTTCGATTTGTACCGACATGTCGGAGTCACCTAGTGCAG”, the binding signal was 9820 fluorescence intensity (a.u.).
The value for “CCTCTCTATCTCTCTCTCGTCGTCTACCTCTCATCTCCTTCGGAGTCACCTAGTGCAG” was 14100 fluorescence intensity (a.u.); that for “CTTTGCTTGCACTTGGACGAGTACAAGTATTTGGATCCTTCGGAGTCACCTAGTGCAG” was 8240 fluorescence intensity (a.u.).
On to “CATACTTATTTCTTCTGAGTTTTGAGTTTTGACTGACAAGCGGAGTCACCTAGTGCAG”, for which the binding signal was 8940 fluorescence intensity (a.u.).
As to “ATCACCTTCACGTTCCGAGATGTGGCACGAATCCCGAGGACGGAGTCACCTAGTGCAG”, the binding signal is 8070 fluorescence intensity (a.u.).
As to “CTGTACTTGCTCTTAGGTTGGCGTTTTGCTTTAAGATTGTCGGAGTCACCTAGTGCAG”, the binding signal was 8520 fluorescence intensity (a.u.).
Next, “CATAATTCTTGACGTCCTTACCAATAACACAGGGCATCATCGGAGTCACCTAGTGCAG”: 8460 fluorescence intensity (a.u.).
Next, “AGTCTGGCTTGCACATCTGCTGTTTACAACACATCAAATTCGGAGTCACCTAGTGCAG”: 9810 fluorescence intensity (a.u.).
The value for “ACTTCTTCTTTTTTTCATATATGCCATGTGTATGACATGTCGGAGTCACCTAGTGCAG” was 9760 fluorescence intensity (a.u.); that for “CGCGTTGGAATTCAGCTGTTAACTTCTTTGTACCTACAAGCGGAGTCACCTAGTGCAG” was 10100 fluorescence intensity (a.u.); that for “CTGGCGTCGCTGTTTCTGGGGATTTGTTGGGAGTGTAGCACGGAGTCACCTAGTGCAG” was 9400 fluorescence intensity (a.u.).
Consider “GGAGGGTTAGGGTTAGGATTCAGAGACTACTGTACTTATTCGGAGTCACCTAGTGCAG”, for which the binding signal is 10900 fluorescence intensity (a.u.).
Next, “TCTCCTCTCCTACCCTTCTTCTTCTTCCACTTGAAGCTTTCGGAGTCACCTAGTGCAG”: 10600 fluorescence intensity (a.u.); “CCGCTGTCATCTCCTTTACTGATAACCATTTACTCATCCACGGAGTCACCTAGTGCAG”: 10300 fluorescence intensity (a.u.).
“TACTTTTTTTAATTACACACAGACACAGACGCGCACATACCGGAGTCACCTAGTGCAG”: the binding signal was 8300 fluorescence intensity (a.u.).
“ATTTCCCCTTTCGTTATCTTGGCCCAAACGTGTGGTTTCCCGGAGTCACCTAGTGCAG”: the binding signal is 10600 fluorescence intensity (a.u.).
In the case of “AGCTCTCTCTCTCCTCCCGGTTCACGACCTTCCATCCGCCCGGAGTCACCTAGTGCAG”, the binding signal is 8120 fluorescence intensity (a.u.).
Next, “GGGAGGGTTTTTTTTTTCTTTTTGGTGTTGTTTTTGGATGCGGAGTCACCTAGTGCAG”: 13000 fluorescence intensity (a.u.); “GGGAGTGGCGGGTTCAAGCTCGAGCTGTGGTGCCTACCGTCGGAGTCACCTAGTGCAG”: 9680 fluorescence intensity (a.u.); “TTGTTCTTTTACATGGCTACACAGATCACATACATTAAAACGGAGTCACCTAGTGCAG”: 8200 fluorescence intensity (a.u.).
Next, “ATTTGACCGGCATTGTATTGTTCGTCGTCGAGGAGGAGGGCGGAGTCACCTAGTGCAG”: 8280 fluorescence intensity (a.u.); “GTTTGTCCTGTATGTATTGCGATGAGTTCTTGAAAATCCTCGGAGTCACCTAGTGCAG”: 13200 fluorescence intensity (a.u.).
